Two substances from PMC10527789 can be followed below.

The chains behind the UniProt entries cited, without tags or fusion partners.
UniProt Q00987: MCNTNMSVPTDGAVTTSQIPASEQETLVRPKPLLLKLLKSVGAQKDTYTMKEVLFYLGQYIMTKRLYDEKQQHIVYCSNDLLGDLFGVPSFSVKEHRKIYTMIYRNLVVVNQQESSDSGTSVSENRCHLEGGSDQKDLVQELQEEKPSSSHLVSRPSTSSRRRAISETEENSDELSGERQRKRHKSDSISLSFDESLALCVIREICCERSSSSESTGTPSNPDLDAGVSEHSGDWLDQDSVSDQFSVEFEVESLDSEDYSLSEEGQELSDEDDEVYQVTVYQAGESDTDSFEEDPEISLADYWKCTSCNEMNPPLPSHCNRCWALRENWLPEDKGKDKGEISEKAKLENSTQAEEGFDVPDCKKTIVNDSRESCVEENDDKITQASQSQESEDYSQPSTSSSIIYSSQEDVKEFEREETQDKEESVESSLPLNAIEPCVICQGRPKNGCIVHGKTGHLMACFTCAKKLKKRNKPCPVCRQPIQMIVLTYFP
UniProt P23804: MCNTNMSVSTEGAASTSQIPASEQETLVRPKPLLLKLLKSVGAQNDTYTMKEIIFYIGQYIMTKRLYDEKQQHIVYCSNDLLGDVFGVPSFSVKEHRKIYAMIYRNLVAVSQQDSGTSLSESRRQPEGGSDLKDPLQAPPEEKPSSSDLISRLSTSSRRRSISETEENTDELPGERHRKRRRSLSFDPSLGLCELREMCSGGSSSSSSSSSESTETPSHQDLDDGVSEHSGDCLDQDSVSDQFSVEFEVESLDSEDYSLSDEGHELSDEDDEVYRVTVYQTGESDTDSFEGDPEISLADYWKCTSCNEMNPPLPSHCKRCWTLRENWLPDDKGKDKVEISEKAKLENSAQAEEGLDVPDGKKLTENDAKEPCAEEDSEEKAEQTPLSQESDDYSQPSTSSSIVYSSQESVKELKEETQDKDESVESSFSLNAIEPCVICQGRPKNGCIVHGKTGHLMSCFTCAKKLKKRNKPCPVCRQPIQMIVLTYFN

Test [1] addresses Caveolin-1 (human, endogenous in CCD-986Sk fibroblasts) (human (endogenous in CCD-986Sk)) (UniProt Q03135). Nature of the test: co-IP; Lysates of human fibroblasts (CCD-986Sk) in NP buffer, precleared; 1 mg protein with 1 µg Cav-1 antibody overnight at 4 °C, protein A/G agarose; MDM2 and Sirt1 detected by Western blot; control cells, H2O2-induced senescent cells, and senescent cells after HIFU (LINEAR or DOT mode, 0.3, 0.5 or 0.7 J). (In western blotting, separated proteins are transferred to a membrane and probed.)

Test [2] addresses T1, Caveolin-1 (mouse, endogenous in skin) (mouse (endogenous in C57BL/6 skin)) (UniProt P49817).
T1 sequence: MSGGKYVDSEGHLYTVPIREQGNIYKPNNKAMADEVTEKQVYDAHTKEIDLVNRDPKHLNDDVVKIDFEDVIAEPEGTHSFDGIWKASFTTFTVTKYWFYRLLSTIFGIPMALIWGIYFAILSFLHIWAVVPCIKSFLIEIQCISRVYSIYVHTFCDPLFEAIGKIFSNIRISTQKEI
The experiment in a line: co-IP; Homogenates of mouse skin (100 mg) in NP buffer, precleared; 1 mg protein with 1 µg Cav-1 antibody overnight at 4 °C, protein A/G agarose; MDM2 and Sirt1 detected by Western blot; young mice, aging mice, and aging mice after HIFU (LINEAR or DOT mode, 0.3, 0.5 or 0.7 J).

Results are given in words; binding and its absence hold for the method and conditions named. Binding seen in cells or lysates may run through a third protein. Some entries that bind do so weakly or less than the wild type.

For the substance “Mouse double minute 2 homolog (human, endogenous in CCD-986Sk fibroblasts) (from UniProt Q00987 1-491)”, the binding result in test [1] is recorded as “binds”.

Take “Mouse double minute 2 homolog (mouse, endogenous in skin) (from UniProt P23804 1-489)”: in test [2], the binding entry is given as “binds”.
